Laboratory results as given in article PMC7949049 (The Journal of Biological Chemistry, 2020).
These are yes or no findings as the source states them, for the method shown. Binding seen in cells or lysates may run through a third protein. Some entries that bind do so weakly or less than the wild type. Sequences can lack the tags named with a protein.

Chains of the proteins cited; added tags and fusions are not shown.
UniProt Q96KP1: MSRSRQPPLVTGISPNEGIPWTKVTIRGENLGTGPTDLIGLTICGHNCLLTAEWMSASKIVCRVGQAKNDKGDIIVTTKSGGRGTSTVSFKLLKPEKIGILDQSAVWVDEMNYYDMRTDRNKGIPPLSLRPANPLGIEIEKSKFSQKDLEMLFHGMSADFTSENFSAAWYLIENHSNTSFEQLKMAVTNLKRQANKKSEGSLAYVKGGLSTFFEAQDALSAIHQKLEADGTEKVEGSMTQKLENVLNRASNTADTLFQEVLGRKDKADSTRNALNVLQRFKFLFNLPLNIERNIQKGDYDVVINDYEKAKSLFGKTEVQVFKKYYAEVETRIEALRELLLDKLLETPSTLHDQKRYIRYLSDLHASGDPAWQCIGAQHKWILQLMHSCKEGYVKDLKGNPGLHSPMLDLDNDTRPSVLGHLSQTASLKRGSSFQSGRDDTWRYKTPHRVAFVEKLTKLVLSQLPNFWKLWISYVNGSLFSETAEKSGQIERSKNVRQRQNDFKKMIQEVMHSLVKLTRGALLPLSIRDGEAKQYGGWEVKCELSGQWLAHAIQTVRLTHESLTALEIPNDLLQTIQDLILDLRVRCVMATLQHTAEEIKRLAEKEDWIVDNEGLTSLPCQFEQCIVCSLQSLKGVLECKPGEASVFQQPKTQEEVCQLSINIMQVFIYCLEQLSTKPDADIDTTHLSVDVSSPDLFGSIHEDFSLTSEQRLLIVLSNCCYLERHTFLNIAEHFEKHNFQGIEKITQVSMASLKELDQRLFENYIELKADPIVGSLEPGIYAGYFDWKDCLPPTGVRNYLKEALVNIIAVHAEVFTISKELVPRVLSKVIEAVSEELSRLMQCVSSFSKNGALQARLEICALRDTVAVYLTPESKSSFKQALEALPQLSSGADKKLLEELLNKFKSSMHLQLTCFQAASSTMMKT

Target: T1, V5-tagged, constitutively active (Q72L) RalB (UniProt P11234)
T1 sequence: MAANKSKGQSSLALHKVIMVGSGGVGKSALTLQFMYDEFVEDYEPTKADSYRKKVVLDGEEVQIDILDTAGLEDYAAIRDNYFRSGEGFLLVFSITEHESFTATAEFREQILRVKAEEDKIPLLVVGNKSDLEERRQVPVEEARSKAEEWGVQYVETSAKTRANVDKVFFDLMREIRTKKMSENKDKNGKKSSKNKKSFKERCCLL
Assay: co-IP; HEK293T lysate; V5-RalB Q72L precipitated on anti-V5 Protein G Dynabeads, blots for flag-RLIP76 or endogenous Sec5; 1 h, 4 °C

- binding: binds
Substance: endogenous Sec5 (from UniProt Q96KP1 1-924)
